# For at least one compound, name, drawing or mass did not settle the structure.
# The chains behind the UniProt entries cited, without tags or fusion partners. Residues count along the entry.
# UniProt Q9NZQ7, 18-239: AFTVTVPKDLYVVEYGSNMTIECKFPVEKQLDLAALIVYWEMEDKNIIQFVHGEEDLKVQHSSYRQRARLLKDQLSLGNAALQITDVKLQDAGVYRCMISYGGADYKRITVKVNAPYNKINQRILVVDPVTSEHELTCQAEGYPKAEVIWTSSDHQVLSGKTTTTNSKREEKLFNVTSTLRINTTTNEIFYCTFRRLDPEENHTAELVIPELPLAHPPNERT
# Molecular target: T1, PD-1/PD-L1 (Homo sapiens, UniProt Q9NZQ7)
# T1 construct: TVMV protease site (C); made in house; host or cells: HEK293T cells
# Assay: PD-1/PD-L1 Homogenous Time-Resolved Fluorescence (HTRF) binding assay
# Conditions: PD-L1-His 10 nM final, PD-1-Ig 20 nM final
# From the text: The ability of the compounds of formula (I) to bind to PD-L1 was investigated using a PD-1/PD-L1 Homogenous Time-Resolved Fluorescence (HTRF) binding assay.
# Homogenous Time-Resolved Fluorescence (HTRF) Binding Assay
# The interaction of PD-1 and PD-L1 can be assessed using soluble, purified preparations of the extracellular domains of the two proteins. The PD-1 and PD-L1 protein extracellular domains were expressed as fusion proteins with detection tags, for PD-1, the tag was the Fc portion of Immunoglobulin (PD-1-Ig) and for PD-L1 it was the 6 histidine motif (PD-L1-His). All binding studies were performed in an HTRF assay buffer consisting of dPBS supplemented with 0.1% […] bovine serum albumin and 0.05% (v/v) Tween-20. For the h/PD-L1-His binding assay, inhibitors were pre-incubated with PD-L1-His (10 nM final) for 15 m in 4 μl of assay buffer, followed by addition of PD-1-Ig (20 nM final) in 1 μl of assay buffer and further incubation for 15 m. HTRF detection was achieved using europium crypate-labeled anti-Ig (1 nM final) and allophycocyanin (APC) labeled anti-His (20 nM final). Antibodies were diluted in HTRF detection buffer and 5 μl was dispensed on top of the binding reaction. […]
# Table 1 lists the IC50 values for representative examples of this disclosure measured in the PD-1/PD-L1 Homogenous Time-Resolved Fluorescence (HTRF) binding assay.
smiles,measurement,value
CCCC[C@H]1C(=O)N(C)[C@@H](CCCC)C(=O)N[C@@H](CC(C)C)C(=O)N[C@H](C(=O)NCC(N)=O)CSCC(=O)N[C@@H](Cc2ccc(O)cc2)C(=O)N(C)[C@@H](C)C(=O)N[C@@H](CC(N)=O)C(=O)N2CCC[C@H]2C(=O)N[C@H]2CNC(=S)NCCCCCCCCNC(=S)NCC[C@H](NC(=O)[C@H](Cc3c[nH]c4ccccc34)NC(=O)[C@@H]3C[C@@H](O)CN3C(=O)[C@H](CC(C)C)NC2=O)C(=O)N[C@@H](Cc2cn(CC(=O)O)c3ccccc23)C(=O)N1C [Example 1006],IC50,16 nM

# Reference: patent US12421278B2, “Immunomodulators” (Bristol-Myers Squibb Company, priority 2020, dated 2025)
